{"source": "patent US20090142273A1", "about": "“Activatable cest MRI agent” (CASE WESTERN RESERVE UNIVERSITY, priority 2006, published 2009)", "key": {"[1]": {"test": "CEST/[…] spectra of Yb-DO3A-oAA before and after reaction with NO", "conditions": "for effect of MR saturation at +10 ppm (amino resonance frequency) relative to the water resonance: independent samples, FIG. 4, unbuffered, pH approximately 5.7-6.3 after reaction"}, "[2]": {"test": "Effect of pH and temperature on […] of DEVD-(Tm-DOTA) amide", "format": "physicochemical"}}}
{"compound": "Nc1ccccc1NC(=O)CN1CCN(CC(=O)[O-])CCN(CC(=O)[O-])CCN(CC(=O)[O-])CC1.[Yb+3]", "note": "[compound 50, Yb(III)-1,4,7,10-tetraazacyclododecane-1,4,7,10-tetraacetic acid o-Aminoanilide]", "values": [{"measurement": "CEST effect / MR frequency of amide protons relative to water", "setting": "[1]; amide functional group", "value": "−13", "unit": "ppm"}, {"measurement": "effect of MR saturation at +10 ppm (amino resonance frequency) relative to the water resonance", "setting": "[1]", "value": "decrease in MR water signal"}]}
{"compound": "Yb-DO3A-triazine [compound 32]", "values": [{"measurement": "effect of MR saturation at +10 ppm (amino resonance frequency) relative to the water resonance", "setting": "[1]", "value": "no PARACEST effect"}]}
{"compound": "DEVD-(Tm-DOTA) amide [compound 155]", "values": [{"measurement": "pH of greatest PARACEST effect, amide proton", "setting": "[2]; 25 mM, saturation at −51 ppm and +51 ppm, 31 μT for 4 seconds", "value": "~8"}, {"measurement": "pH of greatest PARACEST effect, amine protons", "setting": "[2]; amine protons, substance not given", "value": 5}]}
